Laboratory results from article PMC5402713 (Pain, 2017).

Sequences of proteins named here, by UniProt entry; tags and fusion partners are left off. Residues count along the entry.
UniProt J9SQF3, 1-1709 isoform J9SQF3-12: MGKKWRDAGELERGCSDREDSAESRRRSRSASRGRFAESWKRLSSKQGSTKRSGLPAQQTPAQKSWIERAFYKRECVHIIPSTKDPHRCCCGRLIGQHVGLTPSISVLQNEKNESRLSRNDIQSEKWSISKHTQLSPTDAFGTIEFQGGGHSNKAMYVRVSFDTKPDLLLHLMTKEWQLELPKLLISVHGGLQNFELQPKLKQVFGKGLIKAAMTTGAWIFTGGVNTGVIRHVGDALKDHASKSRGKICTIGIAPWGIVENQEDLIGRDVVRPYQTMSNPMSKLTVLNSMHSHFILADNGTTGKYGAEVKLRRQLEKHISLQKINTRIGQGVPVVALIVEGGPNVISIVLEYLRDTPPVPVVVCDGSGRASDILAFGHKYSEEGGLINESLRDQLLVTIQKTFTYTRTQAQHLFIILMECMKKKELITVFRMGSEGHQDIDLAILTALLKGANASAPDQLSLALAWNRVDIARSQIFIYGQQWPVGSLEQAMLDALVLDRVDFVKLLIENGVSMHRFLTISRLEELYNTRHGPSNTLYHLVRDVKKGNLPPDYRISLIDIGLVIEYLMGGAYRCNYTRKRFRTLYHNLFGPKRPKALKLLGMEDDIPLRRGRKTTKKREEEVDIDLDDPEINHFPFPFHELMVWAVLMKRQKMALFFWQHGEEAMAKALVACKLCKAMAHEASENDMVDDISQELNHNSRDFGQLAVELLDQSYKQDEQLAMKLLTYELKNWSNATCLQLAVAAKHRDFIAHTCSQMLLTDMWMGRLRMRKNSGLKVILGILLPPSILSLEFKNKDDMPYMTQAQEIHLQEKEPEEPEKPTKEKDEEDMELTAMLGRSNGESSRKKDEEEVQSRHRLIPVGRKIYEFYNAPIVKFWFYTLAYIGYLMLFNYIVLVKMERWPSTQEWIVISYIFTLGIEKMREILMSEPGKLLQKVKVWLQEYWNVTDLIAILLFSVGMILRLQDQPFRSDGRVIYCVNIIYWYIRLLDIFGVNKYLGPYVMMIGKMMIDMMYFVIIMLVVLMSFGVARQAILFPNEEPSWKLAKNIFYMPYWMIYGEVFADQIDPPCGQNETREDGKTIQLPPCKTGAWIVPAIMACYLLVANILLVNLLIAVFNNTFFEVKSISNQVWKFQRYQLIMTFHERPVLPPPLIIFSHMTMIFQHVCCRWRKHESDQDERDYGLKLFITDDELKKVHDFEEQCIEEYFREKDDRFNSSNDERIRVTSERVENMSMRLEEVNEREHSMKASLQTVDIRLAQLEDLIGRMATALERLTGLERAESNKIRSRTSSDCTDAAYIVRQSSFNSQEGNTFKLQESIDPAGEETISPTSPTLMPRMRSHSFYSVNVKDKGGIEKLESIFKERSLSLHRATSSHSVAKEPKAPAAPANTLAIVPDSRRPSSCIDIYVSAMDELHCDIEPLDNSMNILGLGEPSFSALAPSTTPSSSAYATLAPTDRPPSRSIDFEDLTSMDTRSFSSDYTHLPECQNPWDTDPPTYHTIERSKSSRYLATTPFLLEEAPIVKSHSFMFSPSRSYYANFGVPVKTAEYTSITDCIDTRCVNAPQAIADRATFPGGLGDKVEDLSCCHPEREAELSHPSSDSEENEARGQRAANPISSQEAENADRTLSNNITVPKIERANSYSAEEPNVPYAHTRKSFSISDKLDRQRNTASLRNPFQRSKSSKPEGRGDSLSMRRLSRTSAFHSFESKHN

Target: mouse TRPM3α2 (Mus musculus, UniProt J9SQF3)
Assay type: cell-based

## CNCCCC12CCC(c3ccccc31)c1ccccc12 [maprotiline]
  IC50: 1300 ± 130 nM
